Experimental findings from PMC6194859 are described below.

For at least one entry, the source does not settle the construct or the ends of the probe. Weaker means in comparison with the reference protein, sequence or condition of that experiment.

The term Kd denotes a measure of binding affinity in units of concentration.

The target in this data set is T1, PhoB~P (phosphorylated PhoB) (Escherichia coli) (UniProt P0AFJ5).
T1 sequence: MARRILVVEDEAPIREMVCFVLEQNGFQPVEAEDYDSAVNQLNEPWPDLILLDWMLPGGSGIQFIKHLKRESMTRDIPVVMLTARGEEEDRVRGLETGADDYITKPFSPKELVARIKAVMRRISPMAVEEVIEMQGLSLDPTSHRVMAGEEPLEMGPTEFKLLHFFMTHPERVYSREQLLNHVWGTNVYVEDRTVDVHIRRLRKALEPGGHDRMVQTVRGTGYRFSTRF
The data set is described as follows: EMSA. To be noted: 50 mM Tris pH 7.6, 200 mM NaCl, 0.1 mg/ml BSA, 2 mM MgCl2, 1 mM DTT, 5% glycerol, ~0.1 uM DNA (mM in the source), 15 uM nonfluorescent competitor dsDNA, 30 min, recombinant protein, label: 5'-FAM on strand 1. On the technique in general: In EMSA bound probe runs differently from free probe, usually more slowly.

For “AATGCGACGTCATTATGCGTCAGATTTAT (double strand) [phoB-rp (repression site, antisense strand)]”, the equilibrium dissociation constant (Kd) (phosphoramidate-phosphorylated PhoB, Hill fit) is 0.0049 mM.
For the sequence “AATGCGAGCACATTATGGAACAGATTTAT (double strand) [phoB-rp2 (repression site mutant)]”, the binding result (phosphoramidate-phosphorylated PhoB up to 8.4 uM, little binding) was “binds more weakly”.
